# Source: PubChem BioAssay AID624291 (National Center for Advancing Translational Sciences (NCATS), 2012)
# In all, about 350,000 compounds went through this assay and about 220 (0.063%) were called active. The shares of active, inactive and inconclusive entries below differ from those in the screen. Calls follow the shape of the dose curve; as a rule, active = well fitted activation curve with a large enough effect; inconclusive = small, poorly fitted or top-dose-only effect; inactive = no such curve, though single readings can be large or run the other way. Where the call is inconclusive, the potency comes from a doubtful curve fit.
# Assay: qHTS for Activators of Integrin-Mediated Alleviation for Muscular Dystrophy; also: nearly all actives have a fitted effect of over 60% in size;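 as to activation: 100% = response of the positive control SU9516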
# Details: alpha7betagal myoblasts, beta-gal FDG fluorescence, 48 h; activation: at 38.3 µM (top of the series)
# How it was run: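 alpha7betagal+/- myoblasts (passage 13, 250/well) treated 48 h at 37C with compounds at 1:260 dilution of DMSO stock. Lysed, then beta-galactosidase activity read as FDG fluorescence (ex 480/em 540) after 30 min, with pre-read for autofluorescence.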
# Potency is read from the fitted curve at half-maximal effect.
SMILES,Potency,activation
O=C(Nc1ccc2c(c1)OCO2)c1ccc(S(=O)(=O)N2CCCC2)cc1,"inconclusive: 5.01 µM [activator, single point]",–
C=CCN1C2=NCCCN2c2ccccc21,"inconclusive: 2.82 µM [activator, single point]",–
N#C/C(=C\c1ccc(-c2ccc([N+](=O)[O-])cc2)o1)C(=O)Nc1nc(-c2cccs2)cs1,"inconclusive: 3.98 µM [activator, partial curve, poor fit]",–
CC(C(=O)N1CCCC1)N1CCN(S(=O)(=O)c2ccc(C(C)(C)C)cc2)CC1 (configuration not stated),"inconclusive: 28.2 µM [activator, single point]",–
CCN(CC)CCOC(=O)c1ccc(N/C=C(/C#N)c2nc(-c3ccc4c(c3)OCO4)cs2)cc1,–,inactive: -17.8%
CCOC(=O)C(C)On1c(-n2nc(C)cc2C)nc2ccccc2c1=O (configuration not stated),"inconclusive: 12.6 µM [activator, single point]",–
NS(=O)(=O)c1cccc(NC(=O)CCSc2ccccc2Cl)c1,–,inactive: -6.39%
N#CC1(NC(=O)CSc2n[nH]c(-c3ccccc3)n2)CCCCC1,–,inactive: 1.48%
O=C(NS(=O)(=O)Oc1ccccc1F)OC[C@@H]1CCCN2CCCCC12 (some centres not stated),"inconclusive: 11.2 µM [activator, single point]",–
Nc1c(N(Cc2ccccc2)C(=O)COc2cccc(Cl)c2)c(=O)[nH]c(=O)n1Cc1ccccc1,–,inactive: -39.3%
CCC1C(=O)NCCN1C(=O)c1ccc2nc(Cc3cccc(Cl)c3)oc2c1 (configuration not stated),"inconclusive: 10 µM [activator, partial curve]",–
O=C(N/C(=C/c1ccc(F)cc1)C(=O)N1CCCC1)c1ccccc1,"inconclusive: 10 µM [activator, partial curve]",–
CN(C(=O)CSc1nc2ccccc2o1)C1CCCCC1,"inconclusive: 3.16 µM [activator, partial curve, poor fit]",–
FC(F)(F)c1ccc(/C=N/N2CCN(Cc3cccc4ccccc34)CC2)cc1,–,inactive: 17.2%
CN(C)c1ccc(NC(=O)COC(=O)Cn2nnc3ccccc32)cc1,–,inconclusive: -30% [activator]
COCCN1C=C(C(=O)OC)C(c2ccc(Cl)cc2)C(C(=O)OC)=C1,"inconclusive: 11.2 µM [activator, partial curve, poor fit]",–
O=C(CCCCCn1c(=S)[nH]c2ccc(N3CCOCC3)cc2c1=O)NCCc1ccccc1,"inconclusive: 28.2 µM [activator, single point]",–
CC(=O)Nc1cccc(C(=O)OCC(=O)NCc2ccc(F)cc2)c1,"inconclusive: 22.4 µM [activator, single point]",–
CCC(=O)N1CCc2cc(S(=O)(=O)CCC(=O)NCc3ccccc3OC)ccc21,"inconclusive: 11.2 µM [activator, single point]",–
Cc1cc(C(F)(F)F)n(-c2nc(C(=O)O)cs2)n1,"inconclusive: 3.16 µM [activator, single point]",–
O=C(NC(Cc1ccccc1)C(=O)N1CCN(c2ccccn2)CC1)c1ccco1 (configuration not stated),"inconclusive: 1.12 µM [activator, partial curve, poor fit]",–

# For reference, part of the list above:
SMILES,Potency,activation
CCN(CC)CCOC(=O)c1ccc(N/C=C(/C#N)c2nc(-c3ccc4c(c3)OCO4)cs2)cc1,–,inactive: -17.8%
CCOC(=O)C(C)On1c(-n2nc(C)cc2C)nc2ccccc2c1=O (configuration not stated),"inconclusive: 12.6 µM [activator, single point]",–
NS(=O)(=O)c1cccc(NC(=O)CCSc2ccccc2Cl)c1,–,inactive: -6.39%
N#CC1(NC(=O)CSc2n[nH]c(-c3ccccc3)n2)CCCCC1,–,inactive: 1.48%
O=C(NS(=O)(=O)Oc1ccccc1F)OC[C@@H]1CCCN2CCCCC12 (some centres not stated),"inconclusive: 11.2 µM [activator, single point]",–
Nc1c(N(Cc2ccccc2)C(=O)COc2cccc(Cl)c2)c(=O)[nH]c(=O)n1Cc1ccccc1,–,inactive: -39.3%
CCC1C(=O)NCCN1C(=O)c1ccc2nc(Cc3cccc(Cl)c3)oc2c1 (configuration not stated),"inconclusive: 10 µM [activator, partial curve]",–
O=C(N/C(=C/c1ccc(F)cc1)C(=O)N1CCCC1)c1ccccc1,"inconclusive: 10 µM [activator, partial curve]",–
CN(C(=O)CSc1nc2ccccc2o1)C1CCCCC1,"inconclusive: 3.16 µM [activator, partial curve, poor fit]",–
FC(F)(F)c1ccc(/C=N/N2CCN(Cc3cccc4ccccc34)CC2)cc1,–,inactive: 17.2%
CN(C)c1ccc(NC(=O)COC(=O)Cn2nnc3ccccc32)cc1,–,inconclusive: -30% [activator]
COCCN1C=C(C(=O)OC)C(c2ccc(Cl)cc2)C(C(=O)OC)=C1,"inconclusive: 11.2 µM [activator, partial curve, poor fit]",–
O=C(CCCCCn1c(=S)[nH]c2ccc(N3CCOCC3)cc2c1=O)NCCc1ccccc1,"inconclusive: 28.2 µM [activator, single point]",–

# (more compounds)

SMILES,Potency,activation
O=C(Nc1ccccc1)c1cc([N+](=O)[O-])ccc1NCc1cccnc1,"inconclusive: 11.2 µM [activator, single point]",–
CC(=O)c1cnn(-c2ccc(Cl)cc2)c1C,"inconclusive: 3.16 µM [activator, partial curve, poor fit]",–
CCc1cc2ccc(C)cc2nc1SCC(=O)c1ccc(NC(C)=O)cc1,–,inactive: -29.9%
CCC1CCCCN1C(=O)CSc1nnc(CNC(=O)c2c(F)cccc2Cl)o1 (configuration not stated),"inconclusive: 3.55 µM [activator, single point]",–
COc1ccc(S(=O)(=O)N(C)c2ccc(C(=O)NCc3ccccn3)cc2)cc1OC,"inconclusive: 5.01 µM [activator, single point]",–
COc1ccc(S(=O)(=O)Nc2ccc3c(c2)C(=O)N([C@H](C)CO)C[C@H](C)[C@@H](CN(C)S(C)(=O)=O)O3)cc1,–,inactive: -1.91%
Cc1csc(NC(=O)CSc2nccn2C)n1,"inconclusive: 5.01 µM [activator, single point]",–
N=c1c2c(ncn1CCN1CCOCC1)Oc1ccc3ccccc3c1C2c1ccccc1 (configuration not stated),"inconclusive: 28.2 µM [activator, single point]",–
CCOc1ccc(-c2n[nH]c(C)c2-c2ccccn2)c(O)c1,"inconclusive: 2.82 µM [activator, single point]",–
Cc1ccc2c(=O)[nH]c(Nc3nc(C)cc(-c4ccccc4)n3)nc2c1,"inconclusive: 1 µM [activator, partial curve, poor fit]",–
CNC(=O)COc1coc(CN2CCN(Cc3ccccc3)CC2)cc1=O,–,inactive: -12.5%
Cc1ccc(CC(=O)Nc2ccc(Cl)cn2)cc1,"inconclusive: 3.16 µM [activator, single point]",–
O=C(O)c1cc(Cl)c2c(c1)OCO2,"inconclusive: 5.01 µM [activator, single point]",–
Cc1ccc(OCCn2cc(C(=S)N3CCCC3)c3ccccc32)cc1C,–,inactive: -4.9%
O=C(Nc1ccc(N2CCCCC2)cc1)c1ccccc1,–,inconclusive: 3.94% [activator]
Cc1ccc(C)c(C(=O)CCC(=O)NCc2ccc(Cl)cc2)c1,"inconclusive: 2.82 µM [activator, single point]",–
O=C(Cc1cc(=O)[nH][nH]1)N/N=C/c1c(F)cccc1Cl,"inconclusive: 28.2 µM [activator, single point]",–
Cc1c(Cl)cccc1NC(=O)CSc1nncn1-c1ccccn1,"inconclusive: 3.16 µM [activator, partial curve, poor fit]",–
Cc1ccc(C(=O)OCC(=O)Nc2c(C)nn(-c3ccccc3)c2C)c(O)c1,–,inactive: 24.2%
O=C(c1cccc(F)c1)N1CCN(C(=O)C(c2ccccc2)c2ccccc2)CC1,"inconclusive: 1.26 µM [activator, partial curve, poor fit]",–
CCOC(=O)c1cnc(SCC(=O)N2CCC(C(N)=O)CC2)nc1N,"inconclusive: 11.2 µM [activator, single point]",–
